This experiment concerns the target T1, GST-SwrA (B. subtilis) (UniProt O32266).
T1 sequence: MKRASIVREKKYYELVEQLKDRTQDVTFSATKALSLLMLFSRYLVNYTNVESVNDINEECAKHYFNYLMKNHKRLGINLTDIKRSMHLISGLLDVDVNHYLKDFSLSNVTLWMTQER
Description: pull-down; 0.5 μM SmiA, 0.5 μM GST-SwrA, 80 nM LonA^K720Q-His6 (monomeric) mixed in 25 mM Tris pH 8.0, 100 mM KCl, 10 mM MgCl2, 0.02% NP-40, 1 mM DTT, 5 mM ATP at 37 °C; Glutathione-Sepharose resin; Western blot; both purified. Background: In western blotting, separated proteins are transferred to a membrane and probed.

Results are given in words; binding and its absence hold for the method and conditions named. Where a sequence is shown, tags or fusion partners need not be part of it.

B1: LonA^K720Q-His6 (enzyme, UniProt P37945 1-774)
chain: MAEELKRSIPLLPLRGLLVYPTMVLHLDVGRDKSVQALEQAMMHDHMIFLATQQDISIDEPGEDEIFTVGTYTKIKQMLKLPNGTIRVLVEGLKRAHIVKYNEHEDYTSVDIQLIHEDDSKDTEDEALMRTLLDHFDQYIKISKKISAETYAAVTDIEEPGRMADIVASHLPLKLKDKQDILETADVKDRLNKVIDFINNEKEVLEIEKKIGQRVKRSMERTQKEYYLREQMKAIQKELGDKEGKTGEVQTLTEKIEEAGMPDHVKETALKELNRYEKIPSSSAESSVIRNYIDWLVALPWTDETDDKLDLKEAGRLLDEEHHGLEKVKERILEYLAVQKLTKSLKGPILCLAGPPGVGKTSLAKSIAKSLGRKFVRISLGGVRDESEIRGHRRTYVGAMPGRIIQGMKKAGKLNPVFLLDEIDKMSSDFRGDPSSAMLEVLDPEQNSSFSDHYIEETFDLSKVLFIATANNLATIPGPLRDRMEIINIAGYTEIEKLEIVKDHLLPKQIKEHGLKKSNLQLRDQAILDIIRYYTREAGVRSLERQLAAICRKAAKAIVAEERKRITVTEKNLQDFIGKRIFRYGQAETEDQVGVVTGLAYTTVGGDTLSIEVSLSPGKGKLILTGKLGDVMRESAQAAFSYVRSKTEELGIEPDFHEKYDIHIHVPEGAVPKDGPSAGITMATALVSALTGRAVSREVGMTGEITLRGRVLPIGGLKEQALGAHRAGLTTIIAPKDNEKDIEDIPESVREGLTFILASHLDEVLEHALVGEKK
As for B1, the binding entry is reported as “no binding (tested: 80 nM LonA^K720Q-His6 (monomeric))”.

Source of the values: PMC9204741 (2022).
